This is an account of results in PubChem BioAssay AID1347426 (Functional Genomics Laboratory (NCATS/FGL), 2020).

In all, about 31,000 sequences went through this assay and about 1,400 (4.5%) were called active.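 Rule for the calls: active = median seed-adjusted z-score above 1 or below -1; inactive = the rest.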 Some of the results follow.

This assay in a line: Novel Modifiers of Survival Motor Neuron (SMN) Protein: Gene Identification via Genome-wide siRNA Screen.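 Note: luminescence tracks full-length SMN protein made from the SMN2 reporter.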 The conditions noted are these: HEK293T SMN2-luciferase reporter, siRNA knockdown, 72 h; actives lie on both sides. The procedure, abridged: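 HEK293T cells stably expressing an SMN2 splicing/cDNA-luciferase reporter were reverse-transfected with a druggable-genome siRNA library and read by luminescence at 72 hours; hits defined by MAD score above 1.0 or below -1.0.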
(In general: In a reporter assay the amount or activity of a reporter protein is the signal.)
For the sequence CUCUCUCUCUACGAACAUUTT against TCF7, the median seed-adjusted z-score was inactive: -0.338.
Turning to AGAGGUCUUCGACAAUAAATT against CD9, the median seed-adjusted z-score was active: -1.02.
For UCGAUGUACUGGAGACGGATT against NUCB1 the value was inactive: 0.232; for CACAUUGUCUUACACUGAATT against SMAD6, inactive: -0.167.
For GUCUUUUGCUGCACGAGAATT against RTN4RL1 the value was inactive: -0.537; for CCAUCACCAUCUUGCAUGATT against KCNJ12, inactive: -0.641; for AGUUCGAGGAAGACCUAAATT against DUSP10, inactive: 0.28.
Regarding GUGAAGAUCUUGCCCGUCATT against SLC15A3, the median seed-adjusted z-score is inactive: 0.
For CUUACGUGGUGACACGGUATT against MAPK9 the value was inactive: 0.211; for GUAUCAGCUUAUGAACUUATT against SLC5A11, inactive: -0.219; for GAACACCUGCGAGCACAUUTT against UNC119, inactive: 0.171.
For CAAGCGAAGGAGAAACUCATT against MED4 the value was inactive: -0.632.
Under GGGAAUUGCCUGAACCUUUTT against ARHGAP17 stands inactive: -0.336; under AACCUUUGAUUUUACAUCATT against KRT6C, inactive: -0.275; under CUCUCCUCAUGGUCUAUUUTT against DPAGT1, inactive: -0.144.
GCUCCUUCCAGACGAUGAATT against RCVRN: the median seed-adjusted z-score was inactive: 0.562.
Under CAACCGUGUUUUUCAUUCUTT against SERPINA4 stands inactive: 0.419.
Under CCAUGCUCCAGUUAUCUUUTT against SLC10A6 stands inactive: -0.803.
As to GCGGCUAACAGGAUAUGUATT against ACTN2, the median seed-adjusted z-score was inactive: 0.165.
For GGGAGAACCUUCACACGUATT against ZNF354C the value was inactive: 0.648; for AUAUCAACUUGACCCACCATT against B3GNT7, active: -1.05.
For AGACCCACAUGAUUGUACATT against ZNF710 the value was inactive: 0.
As to GAACUAACAAGUUCCGGAATT against ZC3H3, the median seed-adjusted z-score is inactive: -0.622.
Take GAUACAAUUUCAACACCUATT against GRIP1: the median seed-adjusted z-score was inactive: 0.337.
CGAAGGAAAUCAAGGGAAATT against TEAD2: the median seed-adjusted z-score was inactive: 0.96.
On to GUCCUACAUUAGUGCCUUATT against PSMB8, for which the median seed-adjusted z-score was inactive: 0.
Under UGAUUAGAACUGUCAAACATT against TRIM17 stands inactive: 0.574; under CAUGAGUUGUGACAAAUCATT against BCL2L11, inactive: -0.0521.
Under GCACAGAAUCAGAUAACAATT against CTSL1 stands inactive: 0.378; under CGAACACCGGUGAGGUAUATT against SNRPD3, active: -2.69; under GGAGUUAUCUGGUGACAAUTT against UROS, inactive: -0.248.
Under UAAUAGAAUGUCUCCAAAGTT against HMGN2 stands inactive: -0.038; under GAAAUUAUACCAAGGUGAATT against ZNF675, inactive: -0.343; under GGAAAAAUCUCUCAUCGAATT against NAGA, inactive: -0.247.
As to GGUGCAAGCUGUGAGAGUATT against KCTD18, the median seed-adjusted z-score was inactive: -0.0473.
For CCAUGUACAGAGACAUUCATT against ZNF782 the value was inactive: 0.117; for CCAUUUAGCAGACAAAUAUTT against ZNF761, inactive: 0.291; for CCAUCUCGGAAGAUCUAAATT against MTSS1, inactive: 0.175.
In the case of GGUGCUGUCUAGGCAAGAATT against JAK1, the median seed-adjusted z-score was inactive: 0.0199.
Under GGACAAUACGGGUAAUUGATT against DYNC1I1 stands inactive: -0.716; under ACCCUGCUAUACUCCCUAUTT against MAPKAPK3, inactive: -0.506; under UCAUCUUGAUCUUCUCUCUTT against SLC35C2, inactive: -0.483.
For CAGAAGGUAUGUUAAGCUATT against CRYL1 the value was inactive: 0.0852; for UCCGCACUGUGAAAGACUATT against CABP1, inactive: -0.192; for GGGUCCUAGUGACUGAGAATT against GOLGA2, inactive: 0.18.
Consider AGACAAUUGUCACCAGGAUTT against LEP, for which the median seed-adjusted z-score is inactive: -0.143.
On to CCUUCAACCUGGACUACUATT against GPN2, for which the median seed-adjusted z-score was inactive: 0.
For GGUUCUUGUUUUAUCCCUATT against GCNT1 the value was inactive: 0.463.
For CCGAAUUGCUGAUCAUCCATT against SNX7 the value was inactive: 0.146.
Under AGGACUCCAUUGUGACAGATT against SLC22A8 stands inactive: 0.175; under GCCCAAGGCCAAUUUUGAUTT against C8G, inactive: -0.622.
In the case of CGACAGCGCGGAGUAUCUATT against CACNG8, the median seed-adjusted z-score is inactive: 0.214.
For CUCUAAACCUUUGCCCUAUTT against AMZ2 the value was inactive: 0.26; for GCGAUGUACUCAAAGCUGUTT against MFI2, inactive: 0.365.
Under AAGUAUUCUGAAUCCGUGATT against TPM2 stands inactive: 0.305; under ACAUCUAUGUGCCCAUGGATT against NLGN4Y, inactive: 0.317.
For GCAGUAGCUACAGUACAUATT against USP3 the value was inactive: -0.176; for GCACAAGUGAUAAGAUGCATT against PTK7, inactive: 0.548.
On to CUCCUAAAGUGCAUCGCAATT against GUF1, for which the median seed-adjusted z-score is inactive: 0.119.
Under GGAUCAUAAAUGAAAGGGATT against FOXD4L4 stands inactive: -0.0372; under GAAUGGGUCUUGUAAAUCATT against PPAT, active: -1.51.
For the sequence CGCUGACCCUGGAGAUGUATT against CALY, the median seed-adjusted z-score is inactive: 0.216.
Under GGACAUCAAUAUCGACGAUTT against AK7 stands inactive: -0.702.
As to AGGUGUAUUCCGAACUUAATT against APOBEC3G, the median seed-adjusted z-score is inactive: 0.00539.
Under GGUAGAUAAUUUAGACUUATT against ZNF182 stands inactive: 0.
Under CAUUUCGACUGGAUCAUAUTT against CLK1 stands inactive: -0.436; under GGCUCCAGAGACUACUAUATT against CIRBP, inactive: -0.701; under GUAUCAAGGUUACAUUGGUTT against PSMB7, inactive: 0.131.
In the case of GGGAAAUUCUAGUUAAUCATT against SEC24D, the median seed-adjusted z-score was inactive: 0.529.
